Data: doi:10.1101/2025.06.16.659917
These are yes or no findings as the source states them, for the method shown. In cells and extracts the contact can be indirect. Some entries that bind do so weakly or less than the wild type. For some assays here: Tags and fused reporters may be left off the sequences shown.

Protein sequences, listed by entry. Tags and fused reporters are not part of them. Residues count along the entry.
UniProt P49336, residues 1-403: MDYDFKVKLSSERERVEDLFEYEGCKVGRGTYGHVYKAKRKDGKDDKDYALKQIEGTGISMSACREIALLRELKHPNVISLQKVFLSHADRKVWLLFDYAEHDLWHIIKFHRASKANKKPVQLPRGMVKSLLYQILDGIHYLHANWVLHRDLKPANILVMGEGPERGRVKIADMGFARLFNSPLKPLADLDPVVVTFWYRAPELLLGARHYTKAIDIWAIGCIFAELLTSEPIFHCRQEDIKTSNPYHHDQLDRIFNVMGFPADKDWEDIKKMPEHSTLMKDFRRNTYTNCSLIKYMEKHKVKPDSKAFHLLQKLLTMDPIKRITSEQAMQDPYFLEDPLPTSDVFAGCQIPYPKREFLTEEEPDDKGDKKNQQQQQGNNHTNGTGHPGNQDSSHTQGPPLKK

T1: CycC-YFDM (3Flag-GFP) (human) (UniProt P24863)
T1 sequence: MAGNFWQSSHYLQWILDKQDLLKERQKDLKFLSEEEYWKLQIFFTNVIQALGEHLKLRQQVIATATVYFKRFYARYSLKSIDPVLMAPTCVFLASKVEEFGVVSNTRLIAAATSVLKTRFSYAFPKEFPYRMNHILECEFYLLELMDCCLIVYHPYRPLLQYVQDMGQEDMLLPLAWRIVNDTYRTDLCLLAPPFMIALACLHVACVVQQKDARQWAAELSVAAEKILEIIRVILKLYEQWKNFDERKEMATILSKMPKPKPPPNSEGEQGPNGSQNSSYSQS


Key:
Assay in all cases: co-IP
6Myc-Cdk8 (human) = 6Myc-Cdk8 (human) (UniProt P49336)
[1] = target: CycC-3Flag-GFP-WT (human) (UniProt P24863)
[2] = target: T1, CycC-YFDM (3Flag-GFP) (human)

Binder	binding (6Myc-Cdk8 (human))	binding [1]	binding [2]
Med12(N100), overexpressed in Hek293T (domain or fragment, UniProt Q93074 1-100) MAAFGILSYEHRPLKRPRLGPPDVYPQDPKQKEDELTALNVKQGFNNQPAVSGDEHGSAKNVSFNPAKISSNFSSIIAEKLRCNTLPDTGRRKPQVNQKD	binds	–	–
MTBP (endogenous, full-length) (protein, UniProt Q96DY7 1-904) MDRYLLLVIWGEGKFPSAASREAEHGPEVSSGEGTENQPDFTAANVYHLLKRSISASINPEDSTFPACSVGGIPGSKKWFFAVQAIYGFYQFCSSDWQEIHFDTEKDKIEDVLQTNIEECLGAVECFEEEDSNSRESLSLADLYEEAAENLHQLSDKLPAPGRAMVDIILLLSDKDPPKLKDYLPTVGALKHLREWYSAKITIAGNHCEINCQKIAEYLSANVVSLEDLRNVIDSKELWRGKIQIWERKFGFEISFPEFCLKGVTLKNFSTSNLNTDFLAKKIIPSKDKNILPKVFHYYGPALEFVQMIKLSDLPSCYMSDIEFELGLTNSTKQNSVLLLEQISSLCSKVGALFVLPCTISNILIPPPNQLSSRKWKEYIAKKPKTISVPDVEVKGECSSYYLLLQGNGNRRCKATLIHSANQINGSFALNLIHGKMKTKTEEAKLSFPFDLLSLPHFSGEQIVQREKQLANVQVLALEECLKRRKLAKQPETVSVAELKSLLVLTRKHFLDYFDAVIPKMILRKMDKIKTFNILNDFSPVEPNSSSLMETNPLEWPERHVLQNLETFEKTKQKMRTGSLPHSSEQLLGHKEGPRDSITLLDAKELLKYFTSDGLPIGDLQPLPIQKGEKTFVLTPELSPGKLQVLPFEKASVCHYHGIEYCLDDRKALERDGGFSELQSRLIRYETQTTCTRESFPVPTVLSPLPSPVVSSDPGSVPDGEVLQNELRTEVSRLKRRSKDLNCLYPRKRLVKSESSESLLSQTTGNSNHYHHHVTSRKPQTERSLPVTCPLVPIPSCETPKLATKTSSGQKSMHESKTSRQIKESRSQKHTRILKEVVTETLKKHSITETHECFTACSQRLFEISKFYLKDLKTSRGLFEEMKKTANNNAVQVIDWVLEKTSKK	binds	binds	binds
MTBP-516-704-WT (domain or fragment, UniProt Q96DY7 516-704) AVIPKMILRKMDKIKTFNILNDFSPVEPNSSSLMETNPLEWPERHVLQNLETFEKTKQKMRTGSLPHSSEQLLGHKEGPRDSITLLDAKELLKYFTSDGLPIGDLQPLPIQKGEKTFVLTPELSPGKLQVLPFEKASVCHYHGIEYCLDDRKALERDGGFSELQSRLIRYETQTTCTRESFPVPTVLSP	binds	–	–
